Laboratory results: publication PMC5808757
Results are given in words; binding and its absence hold for the method and conditions named. In cells and extracts the contact can be indirect. Some binding calls cover weakened binding; strength is not graded here. Sequences can lack the tags named with a protein.

Key:
[1] = target: T1, His-tagged wildtype DR3 (death receptor 3) (human) (UniProt Q93038); test: co-IP; lysates of transiently transfected 293T cells; immunoprecipitated with anti-His monoclonal antibody, blotted with anti-His and anti-GFP
T1 sequence: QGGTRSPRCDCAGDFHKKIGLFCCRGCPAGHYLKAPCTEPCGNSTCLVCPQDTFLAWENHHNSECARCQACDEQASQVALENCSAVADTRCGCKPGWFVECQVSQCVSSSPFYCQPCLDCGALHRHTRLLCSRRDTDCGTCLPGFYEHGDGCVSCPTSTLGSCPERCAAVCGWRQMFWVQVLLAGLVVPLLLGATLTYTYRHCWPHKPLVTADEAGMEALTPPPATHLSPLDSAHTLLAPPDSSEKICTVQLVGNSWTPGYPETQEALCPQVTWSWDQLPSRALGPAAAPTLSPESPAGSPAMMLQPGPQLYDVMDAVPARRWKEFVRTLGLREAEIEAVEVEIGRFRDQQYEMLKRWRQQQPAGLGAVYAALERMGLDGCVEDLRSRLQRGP

[2] = target: T1, His-tagged wildtype DR3 (death receptor 3) (human); test: co-IP; 293T cells transfected with His-DR3 and FLAG-TRADD, without or with increasing amounts of EGFP-Var DR3-D159G (0.1 and 0.2 μg); immunoprecipitation and Western blotting

B1: EGFP-DR3D159G (wildtype DR3 with a D159G substitution, i.e. polymorphism a) (receptor, UniProt Q93038 25-417)
chain: QGGTRSPRCDCAGDFHKKIGLFCCRGCPAGHYLKAPCTEPCGNSTCLVCPQDTFLAWENHHNSECARCQACDEQASQVALENCSAVADTRCGCKPGWFVECQVSQCVSSSPFYCQPCLDCGALHRHTRLLCSRRGTDCGTCLPGFYEHGDGCVSCPTSTLGSCPERCAAVCGWRQMFWVQVLLAGLVVPLLLGATLTYTYRHCWPHKPLVTADEAGMEALTPPPATHLSPLDSAHTLLAPPDSSEKICTVQLVGNSWTPGYPETQEALCPQVTWSWDQLPSRALGPAAAPTLSPESPAGSPAMMLQPGPQLYDVMDAVPARRWKEFVRTLGLREAEIEAVEVEIGRFRDQQYEMLKRWRQQQPAGLGAVYAALERMGLDGCVEDLRSRLQRGP
binding [1]: binds

B2: FLAG-tagged TRADD (TNFR-associated death domain protein) (protein, UniProt Q15628 1-312)
chain: MAAGQNGHEEWVGSAYLFVESSLDKVVLSDAYAHPQQKVAVYRALQAALAESGGSPDVLQMLKIHRSDPQLIVQLRFCGRQPCGRFLRAYREGALRAALQRSLAAALAQHSVPLQLELRAGAERLDALLADEERCLSCILAQQPDRLRDEELAELEDALRNLKCGSGARGGDGEVASAPLQPPVPSLSEVKPPPPPPPAQTFLFQGQPVVNRPLSLKDQQTFARSVGLKWRKVGRSLQRGCRALRDPALDSLAYEYEREGLYEQAFQLLRRFVQAEGRRATLQRLVEALEENELTSLAEDLLGLTDPNGGLA
binding [2]: binds
